Reference: article PMC8073111
Results are given in words; binding and its absence hold for the method and conditions named. Binding seen in cells or lysates may run through a third protein. Some results given as binding are weak or reduced against the parent protein; the word gives no strength. For part of these data: Tags and fused reporters may be left off the sequences shown.

Amino acid sequences for entries named in this document (tags omitted). Residues count along the entry.
UniProt P32248, residues 25-378: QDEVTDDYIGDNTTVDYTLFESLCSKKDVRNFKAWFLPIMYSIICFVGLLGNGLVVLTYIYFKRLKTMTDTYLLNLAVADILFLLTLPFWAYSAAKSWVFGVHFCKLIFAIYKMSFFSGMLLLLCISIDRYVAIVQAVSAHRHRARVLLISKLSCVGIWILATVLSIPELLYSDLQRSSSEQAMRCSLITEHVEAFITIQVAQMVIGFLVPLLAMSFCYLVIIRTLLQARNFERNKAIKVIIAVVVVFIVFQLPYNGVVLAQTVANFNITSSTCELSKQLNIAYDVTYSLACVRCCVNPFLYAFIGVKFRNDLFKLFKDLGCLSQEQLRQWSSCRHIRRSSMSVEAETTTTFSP
UniProt P29067: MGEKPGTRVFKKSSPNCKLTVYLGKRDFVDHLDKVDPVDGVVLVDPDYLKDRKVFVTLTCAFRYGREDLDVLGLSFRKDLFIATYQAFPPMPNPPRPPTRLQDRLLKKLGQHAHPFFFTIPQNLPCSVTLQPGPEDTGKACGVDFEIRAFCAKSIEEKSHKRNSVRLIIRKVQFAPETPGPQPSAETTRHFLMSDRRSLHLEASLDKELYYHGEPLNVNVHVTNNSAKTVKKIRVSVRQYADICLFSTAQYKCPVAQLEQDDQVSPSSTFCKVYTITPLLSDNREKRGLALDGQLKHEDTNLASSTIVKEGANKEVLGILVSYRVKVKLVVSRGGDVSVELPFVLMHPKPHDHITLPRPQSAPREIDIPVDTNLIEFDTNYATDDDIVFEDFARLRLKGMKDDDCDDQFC

Experiments:
Experiment in all cases: FRET or BRET; FlpInCHO cells transiently co-expressing C-myc-receptor-RLuc8 (donor) and YFP-β-arrestin2 (acceptor); stimulated with cognate chemokines at the indicated concentrations in HBSS with 5 μM coelenterazine-h; BRET read 10 min after stimulation
[1] = biological target: T1, C-myc-CCR10-RLuc8 (human) (UniProt P46092)
T1 sequence: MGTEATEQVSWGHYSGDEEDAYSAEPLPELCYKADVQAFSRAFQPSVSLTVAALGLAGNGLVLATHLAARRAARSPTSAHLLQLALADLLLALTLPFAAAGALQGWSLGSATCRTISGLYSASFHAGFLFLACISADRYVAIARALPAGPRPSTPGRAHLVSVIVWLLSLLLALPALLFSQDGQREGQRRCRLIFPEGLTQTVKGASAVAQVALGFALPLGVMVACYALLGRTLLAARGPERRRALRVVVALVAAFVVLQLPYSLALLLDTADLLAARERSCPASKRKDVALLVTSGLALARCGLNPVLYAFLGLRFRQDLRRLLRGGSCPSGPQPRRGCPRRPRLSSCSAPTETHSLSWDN

C-myc-CCR4-RLuc8 (human) = biological target: T2, C-myc-CCR4-RLuc8 (human) (UniProt P51679)
T2 sequence: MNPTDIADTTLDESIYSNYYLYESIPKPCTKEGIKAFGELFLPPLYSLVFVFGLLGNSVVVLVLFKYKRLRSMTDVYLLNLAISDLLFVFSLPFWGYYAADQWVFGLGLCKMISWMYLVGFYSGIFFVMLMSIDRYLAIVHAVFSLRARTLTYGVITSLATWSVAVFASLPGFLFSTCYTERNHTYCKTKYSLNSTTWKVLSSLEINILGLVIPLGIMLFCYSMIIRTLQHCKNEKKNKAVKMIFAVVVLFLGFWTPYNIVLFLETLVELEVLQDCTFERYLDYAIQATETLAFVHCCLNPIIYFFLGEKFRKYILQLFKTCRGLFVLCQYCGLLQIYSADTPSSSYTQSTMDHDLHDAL

C-myc-CCR7-RLuc8 (human) = C-myc-CCR7-RLuc8 (human) (UniProt P32248)

- binding [1]: binds
- binding (C-myc-CCR4-RLuc8 (human)): binds
- binding (C-myc-CCR7-RLuc8 (human)): binds
Substance: YFP-β-arrestin2 (from UniProt P29067 1-410)
